Test results reported in patent US20240300910A1, “NITROTHIAZOLE DERIVATIVE AND APPLICATION THEREOF” (CHENGDU BIOBEL BIOTECHNOLOGY CO., LTD., priority 2021, published 2024).
Some of these results come from one statement about several compounds together.

Test system: Clostridium difficile spores (ATCC 630 strain)
Assay: Treatment of Clostridium difficile infection in golden hamsters
Format: in vivo
Details: golden hamsters challenged with C. difficile spores; drugs removed from the 21st day
Protocol: 60 of 5-week-old male golden hamsters, weighing 70-90 g, were purchased from Beijing Vital River Laboratory Animal Technology Co., Ltd. After one week of adaptive feeding, golden hamsters were randomly divided into six groups. The model group and four test groups were orally administrated 10 mg/kg clindamycin, while the blank group was given the same volume of normal saline, and this day was recorded as day −1. On day 0, the model group and the test groups were challenged with Clostridium difficile spores (ATCC 630 strain), and each hamster received 5E4 spores. The blank group was not treated. Starting from the first day, four test groups were administered 100 mg/kg of compound I-3 according to the present invention, 10 mg/kg of vancomycin, 10 mg/kg of fidaxomicin, and 100 mg/kg of nitazoxanide twice a day, respectively; the blank group and the model group were given equal amounts of normal saline for a total of 20 days. During this period, the changes in weight, the diarrhea, and the mortality of animals were observed. Starting from the 21st day, the drugs were removed, but the observation was continued until the 45th day.

SMILES | time after drug withdrawal at which deaths occurred / began
CN[C@H](CC(C)C)C(=O)N[C@H]1C(=O)N[C@@H](CC(N)=O)C(=O)N[C@H]2C(=O)N[C@H]3C(=O)N[C@H](C(=O)N[C@H](C(=O)O)c4cc(O)cc(O)c4-c4cc3ccc4O)[C@H](O)c3ccc(c(Cl)c3)Oc3cc2cc(c3O[C@@H]2O[C@H](CO)[C@@H](O)[C@H](O)[C@H]2O[C@H]2C[C@](C)(N)[C@H](O)[C@H](C)O2)Oc2ccc(cc2Cl)[C@H]1O [vancomycin] | 5˜10 days
CC(=O)Oc1ccccc1C(=O)Nc1ncc([N+](=O)[O-])s1 [nitazoxanide, Nitazoxanide] | 5˜10 days
